{"source": "PubChem BioAssay AID504467", "about": "(National Center for Advancing Translational Sciences (NCATS), 2011)", "note": "The campaign covered roughly 330,000 compounds. About 7,700 (2.3%) were called active. Inconclusive means that the source gave no clear call. Such entries were picked first, then a sample of the others. Calls follow the shape of the dose curve; as a rule, active = well fitted inhibition curve with a large enough effect; inconclusive = small, poorly fitted or top-dose-only effect, or effect the other way; inactive = flat fitted curve, though single readings scatter. Potencies of inconclusive entries are doubtful fits and often do not repeat. % is scaled to controls: 0 for no effect and ±100 for the full control effect; potency is read from the fitted curve at half-maximal effect."}
{"assay": "qHTS screen for small molecules that inhibit ELG1-dependent DNA repair in human embryonic kidney (HEK293T) cells expressing luciferase-tagged ELG1; also: nearly all actives have a fitted effect of over 55% in size", "settings": "HEK293T ELG1-luciferase reporter, luminescence, 16 h, DNA damage induced by 5-fluorouridine; activity change, negative = inhibition: at 46.1 µM (top of the series)", "summary_of_the_method": "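5-Fluorouridine DNA damage + compound/DMSO, 2,000 cells/well, 16 h, 37 °C/5% CO2. ONE-Glo, 30 min RT, luminescence. Readout = decrease in reporter signal.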"}
{"smiles": "CC(=O)N1CCc2cc(S(=O)(=O)CCC(=O)NCCc3ccc(Cl)cc3)ccc21", "activity change, negative = inhibition": "inactive: 0.691%"}
{"smiles": "CSc1nc2nc3c(cc2c(=O)n1-c1ccccc1C)COC(C)(C)C3", "activity change, negative = inhibition": "inactive: 0%"}
{"smiles": "CCc1cccc(CC)c1NC(=S)Nc1ccccc1", "activity change, negative = inhibition": "inactive: -4.4%"}
{"smiles": "CNC(=O)c1cc(C)c(-c2ccccc2)s1", "Potency": "inconclusive: 20.6 µM [activator, partial curve]"}
{"smiles": "CCCN(CC(=O)Nc1ccccc1OC)C(=O)c1ccc(S(=O)(=O)NCc2ccco2)cc1", "activity change, negative = inhibition": "inactive: -10.3%"}
{"smiles": "Cc1cc(C(=O)Nc2nc3ccc(S(C)(=O)=O)cc3s2)c(C)o1", "Potency": "inconclusive: 3.66 µM [activator, full curve, poor fit]"}
{"smiles": "COc1cc(Cl)c(C)cc1NC(=O)CSc1nnc(-c2cccnc2)n1Cc1ccco1", "Potency": "inconclusive: 29.1 µM [inhibitor, single point]"}
{"smiles": "O=S(=O)(NCc1cn2ccccc2n1)c1ccccc1F", "Potency": "inconclusive: 20.6 µM [activator, single point]"}
{"smiles": "O=c1[nH]c(=O)n(C2CCCO2)cc1Br", "note": "(stereo not drawn)", "activity change, negative = inhibition": "inactive: 12.9%"}
{"smiles": "O=C(CN1C(=O)c2ccccc2S1(=O)=O)c1ccc(F)c(F)c1", "activity change, negative = inhibition": "inactive: 29.7%"}
{"smiles": "O=C1NC[C@@H](c2ccccc2)OC(=O)[C@@H](Cc2ccc(F)cc2)C/C=C\\C[C@@H]1CC(=O)N(CCO)Cc1ccccc1", "Potency": "active: 20.6 µM"}
{"smiles": "C=CCN(CC=C)C(=S)NC(=O)c1ccc(OC)cc1", "activity change, negative = inhibition": "inactive: -4.26%"}
{"smiles": "Clc1ccc(OCCSc2ncccn2)c(Br)c1", "Potency": "inconclusive: 4.11 µM [activator, full curve]"}
{"smiles": "Cc1ccc(-c2csc(NC(=O)CN3CC(C)OC(C)C3)n2)cc1", "note": "(stereo not drawn)", "Potency": "inconclusive: 20.6 µM [inhibitor, single point]"}
{"smiles": "O=C(CNC(=O)c1ccco1)Nc1ccc(Br)cc1", "Potency": "inconclusive: 20.6 µM [activator, partial curve]"}
{"smiles": "CC(C)CC(=O)NC(=S)Nc1cccc2nsnc12", "Potency": "inconclusive: 23.1 µM [inhibitor, single point]"}
{"smiles": "CC(C)c1ccc(C(=O)CSc2ncn[nH]2)cc1", "Potency": "inconclusive: 16.4 µM [activator, partial curve]"}
{"smiles": "O=C(CCSc1ccc(Cl)cc1)N1CCN(c2ccc(O)cc2)CC1", "Potency": "active: 8.2 µM"}
{"smiles": "C=CCN=C1S/C(=C\\c2ccc(N(C)C)cc2)C(=O)N1CC=C", "activity change, negative = inhibition": "inactive: 4.04%"}
{"smiles": "CCOC(=O)C1(Cc2ccc(OC)cc2)CCN(C(=O)c2ccoc2C)CC1", "activity change, negative = inhibition": "inactive: -11.3%"}
{"smiles": "Cc1ccc(-n2c(C)cc(/C=N/NC(=O)c3ccncc3)c2C)cc1C", "activity change, negative = inhibition": "inactive: -9.05%"}
{"smiles": "Cc1ccc2nc(SCc3cccc([N+](=O)[O-])c3)nc(C)c2c1", "activity change, negative = inhibition": "inactive: 9.4%"}
{"smiles": "Cc1cc(C)n(-c2nc(NCCC(C)C)c3c4c(sc3n2)COC(C)(C)C4)n1", "Potency": "active: 18.4 µM"}
{"smiles": "Cc1ccc(C(=O)NCC(=O)NC2CC2)cc1", "Potency": "inconclusive: 29.1 µM [activator, single point]"}
{"smiles": "Cn1c(-c2ccc(F)cc2)cnc1NCc1ccccc1F", "Potency": "inconclusive: 20.6 µM [activator, single point]"}
{"smiles": "CCCNC(=O)c1ccc(N2CCC3(CC2)CC(c2ccccc2)=NO3)c(NC(=O)c2ccc(Br)cc2)c1", "Potency": "inconclusive: 6.51 µM [inhibitor, partial curve, poor fit]"}
{"smiles": "CC(=O)Nc1cccc(NC(=O)Nc2ccc(F)cc2F)c1", "Potency": "inconclusive: 14.6 µM [activator, partial curve, poor fit]"}
{"smiles": "CC(=O)Nc1ccc(NCc2ccc(C)s2)cc1", "Potency": "inconclusive: 18.3 µM [activator, partial curve]"}
{"smiles": "CCOc1ccc(CNC(=O)C2CCN(c3nnc(C)c4c(C)n(-c5ccc(C)cc5)nc34)CC2)cc1", "activity change, negative = inhibition": "inactive: -9.45%"}
{"smiles": "CN(CC(=O)Nc1c(Cl)cccc1Cl)C(=O)c1ccc2ccccc2n1", "Potency": "inconclusive: 29.1 µM [activator, single point]"}
{"smiles": "Cc1ccc(C)c(Cn2c(CN(C)Cc3ccccc3)nc3c2c(=O)n(C)c(=O)n3C)c1", "Potency": "inconclusive: 16.4 µM [inhibitor, single point]"}
{"smiles": "O=C(Nc1nc2ccccc2[nH]1)c1cc2ccccc2o1", "Potency": "inconclusive: 2.31 µM [activator, partial curve]"}
{"smiles": "CC1Cc2ccccc2N1C(=O)C1CC(=O)N(c2ccccc2)C1", "note": "(stereo not drawn)", "activity change, negative = inhibition": "inactive: -0.585%"}
{"smiles": "Cc1ccc(CONC(=O)c2ccc(Cl)cc2)cc1", "Potency": "inconclusive: 18.3 µM [activator, partial curve]"}
{"smiles": "COc1ccc(-c2nc(CS(=O)CC(=O)NCc3ccc(Cl)cc3)c(C)o2)cc1OC", "note": "(stereo not drawn)", "activity change, negative = inhibition": "inactive: -7.2%"}
{"smiles": "COc1ccc(-c2nc(-c3ccccn3)nc(N3CCN(C)CC3)c2C#N)cc1", "Potency": "inconclusive: 23.1 µM [inhibitor, partial curve]"}
{"smiles": "COc1ccc(S(=O)(=O)Cc2ccc(C(=O)NCCc3cc(OC)ccc3OC)o2)cc1", "Potency": "inconclusive: 29.1 µM [inhibitor, single point]"}
{"smiles": "O=C(OCCc1cc2ccccc2c(=O)o1)c1ccco1", "activity change, negative = inhibition": "inactive: 30.3%"}
{"smiles": "COc1ccc(OCCN2C(=O)c3ccccc3C2=O)cc1", "Potency": "inconclusive: 23.1 µM [activator, partial curve]"}
{"smiles": "O=C(N/N=C/c1cccnc1)c1cc(-c2ccc(Br)cc2)nc2ccccc12", "Potency": "active: 13 µM"}
{"smiles": "CCN(CC)C(=O)c1cc(Cl)ccn1", "activity change, negative = inhibition": "inactive: 9.04%"}
{"smiles": "c1ccc(-n2ncc3c(NC4CCCCCC4)ncnc32)cc1", "Potency": "inconclusive: 1.46 µM [activator, partial curve]"}
{"smiles": "CCC(c1nnnn1Cc1ccco1)N(CCc1ccccc1)Cc1cc2ccc(OC)cc2[nH]c1=O", "note": "(stereo not drawn)", "Potency": "inconclusive: 35.5 µM [inhibitor, single point]"}
{"smiles": "CCCCSCCCNC(=O)C1CCC(CNS(=O)(=O)c2ccccc2)CC1", "note": "(stereo not drawn)", "Potency": "inconclusive: 29.1 µM [inhibitor, single point]"}
{"smiles": "O=C(Nc1cccc2cccnc12)c1ccc(Cl)cc1", "Potency": "inconclusive: 20.6 µM [activator, partial curve]"}
{"smiles": "O=C1CSC(=S)N1/N=C/c1ccc(Cl)c([N+](=O)[O-])c1", "Potency": "inconclusive: 6.51 µM [inhibitor, single point]"}
{"smiles": "CC1CCN(C(=O)COC(=O)c2ccc3c(c2)OCCO3)CC1", "Potency": "inconclusive: 20.6 µM [activator, partial curve]"}
{"smiles": "O=C(NNC(=O)c1cccc2ccccc12)c1ccc2c(c1)OCO2", "Potency": "inconclusive: 16.4 µM [activator, single point]"}
{"smiles": "Cc1csc2ncc(C(=O)Nc3ccccc3Cl)c(=O)n12", "Potency": "inconclusive: 2.31 µM [activator, partial curve]"}
{"smiles": "O=C(CN1C(=O)NC2(CCc3ccccc32)C1=O)c1cccs1", "note": "(stereo not drawn)", "activity change, negative = inhibition": "inactive: 10.3%"}
{"smiles": "O=c1c2ccccc2nc(-c2cccc(Cl)c2)n1O", "activity change, negative = inhibition": "inactive: 0.248%"}
{"smiles": "Cc1ccc(C)c(CN2CCNC2=O)c1", "Potency": "inconclusive: 23.1 µM [activator, single point]"}
{"smiles": "CCOC(=O)c1ccc(S(=O)(=O)N2CCN(C3CC(=O)N(c4ccccc4C(F)(F)F)C3=O)CC2)cc1", "note": "(stereo not drawn)", "activity change, negative = inhibition": "inactive: -1.59%"}
{"smiles": "O=C(Nc1ccc(Br)cc1F)c1ccc2nsnc2c1", "Potency": "inconclusive: 8.2 µM [activator, partial curve]"}
{"smiles": "CC1(C)CC(=O)C(N=Nc2ccc(Cl)cc2)=C(O)C1", "Potency": "inconclusive: 7.31 µM [activator, partial curve]"}
{"smiles": "O=C(O)/C=C/c1cn(-c2ccccc2)nc1-c1cccs1", "Potency": "inconclusive: 29.1 µM [activator, single point]"}
{"smiles": "COc1ccc(N2CC(C(=O)Nc3nnc(SCc4ccccn4)s3)CC2=O)cc1", "note": "(stereo not drawn)", "activity change, negative = inhibition": "inactive: 15.6%"}
{"smiles": "Cc1cccc(C)c1NC(=S)NCCSc1ccc(Cl)cc1", "Potency": "inconclusive: 32.6 µM [inhibitor, single point]"}
{"smiles": "CCCCNc1c(-c2ccc(OC)c(SC(C)CC)c2)nc2ccc(C)cn12", "note": "(stereo not drawn)", "Potency": "active: 7.3 µM"}
{"smiles": "CCCC1NC(=S)NC(C)=C1C(C)=O", "note": "(stereo not drawn)", "Potency": "inconclusive: 29.1 µM [activator, single point]"}
{"smiles": "Nc1ccc2nn(-c3ccc(Cl)cc3)nc2c1", "Potency": "inconclusive: 2.31 µM [activator, full curve]"}
{"smiles": "Cc1ccc2c(Cl)cc(Cl)c(OCC(=O)NC(C)(C)C)c2n1", "Potency": "inconclusive: 20.6 µM [inhibitor, partial curve, poor fit]"}
{"smiles": "Cc1cc2oc(=O)c(CC(=O)O)c(C)c2c2occ(C(C)(C)C)c12", "Potency": "inconclusive: 20.6 µM [activator, partial curve]"}
{"smiles": "CC(=O)N1CCN(S(=O)(=O)c2cccc(C(=O)N(Cc3ccccc3)c3cccc(C)c3)c2)CC1", "Potency": "inconclusive: 29.1 µM [inhibitor, single point]"}
{"smiles": "Cc1cc(C)cc(N(CC(=O)Nc2ccc(-c3nc4ccc(C)cc4s3)cc2)S(C)(=O)=O)c1", "Potency": "inconclusive: 10.3 µM [activator, partial curve]"}
{"smiles": "Cc1cc(N/N=C\\c2ccc(Br)cc2)nc(-n2nc(C)cc2C)n1", "Potency": "inconclusive: 5.17 µM [inhibitor, partial curve, poor fit]"}
{"smiles": "CCOC(=O)C1(CCOc2ccccc2)CCN(Cc2ccc(O)c(Cl)c2)CC1", "Potency": "inconclusive: 14.6 µM [inhibitor, partial curve, poor fit]"}
{"smiles": "Cc1cc(C)c(C#N)c(Sc2nnnn2-c2ccccc2)n1", "activity change, negative = inhibition": "inactive: -6.57%"}
{"smiles": "C=CCNc1nnc(Cc2ccc(C(C)C)cc2)c(=O)[nH]1", "activity change, negative = inhibition": "inactive: -20.5%"}
{"smiles": "O=C(CSc1ccccn1)N1CCN(c2ccccc2)CC1", "Potency": "inconclusive: 13 µM [activator, partial curve]"}
{"smiles": "O=C(Nc1ncc(Cc2cccc(C(F)(F)F)c2)s1)c1ccc(-c2cccc([N+](=O)[O-])c2)o1", "Potency": "active: 11.6 µM"}
{"smiles": "O=C(/C=C/c1ccco1)Nc1ccccc1C(=O)Nc1cccc(C(=O)O)c1", "Potency": "inconclusive: 25.9 µM [activator, single point]"}
{"smiles": "COCCn1c(SCC(=O)NCc2ccc3c(c2)OCO3)nnc1-c1c[nH]c2ccccc12", "Potency": "inconclusive: 16.4 µM [inhibitor, partial curve, poor fit]"}
